# Reference: article PMC10770727
# Chains of the proteins cited; added tags and fusions are not shown. Residues count along the entry.
# UniProt P52193, residues 18-417: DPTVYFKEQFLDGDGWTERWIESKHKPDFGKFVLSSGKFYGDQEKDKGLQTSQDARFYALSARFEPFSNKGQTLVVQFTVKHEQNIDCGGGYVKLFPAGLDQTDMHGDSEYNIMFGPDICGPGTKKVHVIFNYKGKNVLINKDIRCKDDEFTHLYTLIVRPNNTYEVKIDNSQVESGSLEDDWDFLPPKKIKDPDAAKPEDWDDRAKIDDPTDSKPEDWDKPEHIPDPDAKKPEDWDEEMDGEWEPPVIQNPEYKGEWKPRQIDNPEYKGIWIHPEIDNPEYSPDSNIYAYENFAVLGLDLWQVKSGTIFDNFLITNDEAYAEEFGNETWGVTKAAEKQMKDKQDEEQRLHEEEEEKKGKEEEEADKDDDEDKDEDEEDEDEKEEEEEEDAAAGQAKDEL
# UniProt P02769, residues 25-607: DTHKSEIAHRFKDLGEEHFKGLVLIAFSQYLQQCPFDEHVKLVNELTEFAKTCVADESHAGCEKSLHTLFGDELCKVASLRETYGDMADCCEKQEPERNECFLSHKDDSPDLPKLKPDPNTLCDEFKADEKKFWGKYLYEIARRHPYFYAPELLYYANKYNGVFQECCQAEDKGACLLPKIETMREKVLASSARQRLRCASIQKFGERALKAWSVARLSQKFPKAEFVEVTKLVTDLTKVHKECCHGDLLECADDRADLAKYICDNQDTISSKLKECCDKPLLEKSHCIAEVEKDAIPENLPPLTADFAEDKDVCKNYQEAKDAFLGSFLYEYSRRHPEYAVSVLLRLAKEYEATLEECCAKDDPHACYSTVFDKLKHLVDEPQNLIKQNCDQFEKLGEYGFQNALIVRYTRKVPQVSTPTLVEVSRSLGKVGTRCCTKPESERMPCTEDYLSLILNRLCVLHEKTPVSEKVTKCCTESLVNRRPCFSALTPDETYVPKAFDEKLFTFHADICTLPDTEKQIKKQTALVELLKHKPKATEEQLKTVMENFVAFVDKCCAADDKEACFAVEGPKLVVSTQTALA
# Results are given in words; binding and its absence hold for the method and conditions named.
# Target: bovine liver calreticulin (bovine) (UniProt P52193)
# Test: SPR; bovine CRT or human recombinant S100A10 amine-coupled to CM5 chips (1000 to 1300 RU), BIACORE 3000; Glu-plasminogen (0-1 uM) or 0.5 uM bovine serum albumin flowed at 50 ul/min; 25 °C; HBS-ET (10 mM Hepes pH 7.4, 150 mM NaCl, 3 mM EDTA, 0.05% Tween-20); apparent KD from steady-state affinity model; both purified
substance,measurement,value
bovine serum albumin (from UniProt P02769 25-607),binding,no binding (tested: 500 nM)
